Results reported in publication PMC12670400, “LEKTI-Grafted Sunflower Trypsin Inhibitor: A Potential Therapeutic for Skin Diseases” (Journal of Medicinal Chemistry, 2025).
No constants are given. Whether binding was seen depends on the method and setting.

Chains of the proteins cited; added tags and fusions are not shown. Lines headed by an entry give the natural chain unless they say otherwise; changes in a name come on top.
UniProt P49862: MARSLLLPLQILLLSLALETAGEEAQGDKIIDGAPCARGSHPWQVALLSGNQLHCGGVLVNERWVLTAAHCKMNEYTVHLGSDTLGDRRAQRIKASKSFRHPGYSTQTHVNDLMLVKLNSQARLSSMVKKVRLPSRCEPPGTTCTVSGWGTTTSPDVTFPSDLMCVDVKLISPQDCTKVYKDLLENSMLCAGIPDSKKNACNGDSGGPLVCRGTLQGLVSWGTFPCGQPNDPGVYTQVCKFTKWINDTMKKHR

Target: KLK7 (Homo sapiens, UniProt P49862)
Test: enzyme inhibition assay (fluorogenic substrate); selectivity: inhibition of KLK7, KLK8 or KLK14 activity by the peptide, n = 3; substrates and conditions in the Supporting Information; both purified

binding: no binding (tested: >1 μm)
Binder: GFCTRSNPPECWPN (head-to-tail cyclised backbone; oxidised (disulfide)) [LEKTI-grafted SFTI analogue, lead 7]
